Experimental data: PubChem BioAssay AID504786 (Drosophila RNAi Screening Center, 2011)
Aim: 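Positive regulators of HIF-driven reporter output in Drosophila cells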 (primary screen). Cell system: Drosophila S2 cells with a stable HIF luciferase reporter. Knock-down reagent: long dsRNA against Drosophila genes, about 0.2 µg dsRNA per well of a 384-well plate. Time to read-out: three days of knock-down, then 20 h of DFO before reading. Conditions: desferrioxamine (DFO) at 100 µM, an iron chelator that mimics hypoxia, for 20 h. Read-out: 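Firefly luciferase driven by the mouse ldh-a hypoxia-response element, measured after 20 h of 100 µM DFO; z-scores per plate, higher means more signal lost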. Scale: z-score: higher = stronger loss of HIF reporter signal.
The deposit covers about 21,000 reagents; this is a random part of those with a known target gene and a result. 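Primary screen; positive scores mean lost reporter signal, so the sign may be inverted from the usual convention.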 Not all columns of the deposit are shown. Reagent sequences are not shown.

no.	predicted target	DRSC id	z-score, replicate 1
1	Spc25	DRSC14164	0.6
2	CG33506	DRSC05981	0.1
3	key (kenny)	DRSC04285	-0.2
4	CG12480	DRSC19460	-0.4
5	ETH (Ecdysis triggering hormone)	DRSC04612	0
6	Acp95EF (Accessory gland protein 95EF)	DRSC14102	-0.2
7	Ugt35C1 (UDP-glycosyltransferase family 35 member C1)	DRSC16080	-0.2
8	CG11019 (retired record)	DRSC02117	0.3
9	Ork1 (Open rectifier K[+] channel 1)	DRSC20266	-0.2
10	Chs2 (Chitin synthase 2)	DRSC11830	-0.3
11	CG8204	DRSC07106	0.1
12	stwl (stonewall)	DRSC11400	1.3
13	CG12865 (retired record)	DRSC06205	-0.2
14	mRpL36 (mitochondrial ribosomal protein L36)	DRSC10337	1.2
15	CG34406 (retired record)	DRSC00523	-0.3
16	CG34406 (retired record)	DRSC00606	-0.3
17	Srx (Sulfiredoxin)	DRSC20005	-0.3

The list goes on (4 carried over from the part before).
no.	predicted target	DRSC id	z-score, replicate 1
14	mRpL36 (mitochondrial ribosomal protein L36)	DRSC10337	1.2
15	CG34406 (retired record)	DRSC00523	-0.3
16	CG34406 (retired record)	DRSC00606	-0.3
17	Srx (Sulfiredoxin)	DRSC20005	-0.3
18	gNacalpha	DRSC00654	-0.2
19	CG2991	DRSC00559	-0.2
20	CG10650	DRSC02085	-0.3
21	CG32762	DRSC18298	-0.3
22	Twdlbeta (Tweedlebeta)	DRSC07310	-0.4
23	aqz (aaquetzalli)	DRSC16570	-0.3
24	CG6337	DRSC06977	-0.4
25	CG9168	DRSC08633	-0.2
26	CG8026	DRSC07055	-0.3
27	CG8026	DRSC07056	-0.4
28	CG13928	DRSC08397	-0.2
29	Kal1 (Kallmann syndrome 1)	DRSC15983	0
30	fiz (fezzik)	DRSC20188	-0.1
31	His4r (Histone H4 replacement)	DRSC16703	3.8
32	CG8138	DRSC16386	-0.3
33	Art3 (Arginine methyltransferase 3)	DRSC16065	-0.3
34	bowl	DRSC00805	-0.3
